The source of these data is PubChem BioAssay AID638 (SRMLSC, 2007).

The whole screen tested about 1,300 compounds, of which about 65 (5%) were called active.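 The calls were made as follows: active = growth inhibition reaching a set limit at one or more tested doses; inactive = the rest.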 This is one part of the list. Measured potencies and affinities stand elsewhere.

The assay can be described thus: wild-type E. coli BW25113 antibacterial activity – OD615, dose response (AID 638). The conditions noted are these: at 100 µM (top of the series) unless noted. An outline of the steps: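 Material – E. coli BW25113 wild type · Medium – Kanamycin-supplemented LB broth · Doses – compound dilution series for dose-response · Incubation – 20 h compound exposure, 37 °C · Technique – optical density (absorbance) at 615 nm · Read-out basis – IC50 from 4-parameter logistic, bounds fixed 0–100% · Control set – chloramphenicol at 30 µM final as inhibition control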
Regarding `CCCN(CCC)c1nc2ccccc2nc1C(C#N)C(=O)OCCOC` (stereo unspecified), the growth inhibition is inactive: -4.58%.

For the compound `O=C(Oc1ccccc1)c1cc2ccccc2o1`, the growth inhibition was inactive: 7.26%.

Consider `COc1ccccc1-c1cc(C(=O)NC(C)c2ccccc2)no1` (stereo unspecified), for which the growth inhibition is inactive: -6.27%.

Take `CCSC1=C(C#N)C(c2ccc(Cl)cc2)C2=C(CCCC2=O)N1` (stereo unspecified): the growth inhibition was inactive: 11.6%.

For `O=C(Nc1nc(-c2cc(Cl)sc2Cl)cs1)c1cccs1`, the growth inhibition is inactive: -7.16%.

As to `CCOC(=O)c1cnc(-n2nc(C)cc2C)nc1Nc1ccc(N(C)C)cc1`, the growth inhibition was inactive: -9.22%.

As for `O=C(NC12CC3CC(CC(C3)C1)C2)c1ccccc1O`, the growth inhibition is inactive: 13.4%.

As for `O=C(COc1ccc2ccccc2c1Br)N1CCN(c2ccccn2)CC1`, the growth inhibition is inactive: -12.5%.

Turning to `CC(C)c1ccc(-c2nnn(Cc3nc4ccccc4s3)n2)cc1`, the growth inhibition is inactive: 11.7%.

Turning to `O=C1CC(c2ccco2)CC2=C1C1c3ccccc3C(=O)N1c1ccccc1N2` (stereo unspecified), the growth inhibition was inactive: -3.27%.

For `c1ccc(CC2CCN(c3nnnn3-c3ccccc3)CC2)cc1`, the growth inhibition is inactive: -7.68%.

Take `CCCCN(CCCNC(=O)CN1C(=O)COc2ccccc21)c1ccccc1`: the growth inhibition is inactive: 6.07%.

For `COc1ccc(-c2[nH]ncc2-c2cnn(-c3ccccc3)c2)c(O)c1`, the growth inhibition was inactive: 0.4%.

In the case of `Cn1c(=O)n(CCc2ccccc2)c(=O)c2c1nc1n2CCCN1CCc1ccccc1`, the growth inhibition was inactive: -24.7%.

On to `Cc1ccccc1-c1nc(CS(=O)(=O)CC(=O)N2CCc3ccccc3C2)c(C)o1`, for which the growth inhibition is inactive: -10.7%.

As for `Cc1ccc(-c2noc(CSc3nnnn3C3CCCCC3)n2)cc1`, the growth inhibition was inactive: -3.03%.

Take `CCCc1nc(SCC(=O)N2CCCc3ccccc32)c2c(=O)n(C)c(=O)n(C)c2n1`: the growth inhibition is inactive: -22%.

For `Cc1cccc(N=c2oc3cc(O)ccc3cc2C(N)=O)c1`, the growth inhibition is inactive: 5.71%.

In the case of `CCOC(=O)N1CCc2c(sc(NC(=O)c3ccc(Cl)s3)c2C(N)=O)C1`, the growth inhibition is inactive: -4.25%.

On to `CCNc1nc(NC(C)C)nc(N(C#N)Cc2ccccc2)n1`, for which the growth inhibition was inactive: 2.21%.

For `Clc1ccc(OCc2nc(-c3ccccn3)n[nH]2)cc1`, the growth inhibition is inactive: 14.2%.

As for `Cc1ccc(C2c3c(-c4ccccc4O)n[nH]c3C(=O)N2Cc2ccncc2)cc1` (stereo unspecified), the growth inhibition is inactive: -4.25%.

With `CCC(C(=O)Nc1ccccc1OC)n1c(C(=O)OC)cc2ccsc21` (stereo unspecified), the growth inhibition is inactive: -0.45%.

`O=C(Nc1ccccc1)Nc1ccc(S(=O)(=O)N2CCCCC2)cc1`: the growth inhibition is inactive: 14.5% [at 50 µM].

Turning to `COC(=O)c1c(C)oc2ccc(OC(=O)c3cccs3)cc12`, the growth inhibition was inactive: -12.5%.

Consider `O=C(COc1cccc(OC(F)F)c1)Nc1ccc(SC(F)F)cc1`, for which the growth inhibition is inactive: 12.4%.
